# For at least one compound, name, drawing or mass did not settle the structure.
# Test system: PPK1
# Assay: Capillary feeding assay in Drosophila
# Format: in vivo
# Settings: male yw flies, 100 mM sucrose with 10 mM benzamil vs DMSO, 24 hr
compound,measurement,value
NC(=NCc1ccccc1)NC(=O)c1nc(Cl)c(N)nc1N [Benzamil],food intake in Drosophila,increase in food consumption
